Assay results taken from PubChem BioAssay AID504467 (National Center for Advancing Translational Sciences (NCATS), 2011).
The campaign covered roughly 330,000 compounds. About 7,700 (2.3%) were called active. The inconclusive results got no clear call from the source; some entries with a clear call stand among them for comparison. The call rests on the fitted dose curve; in most records, active means well fitted inhibition curve with a large enough effect; inconclusive means small, poorly fitted or top-dose-only effect, or effect the other way; inactive means flat fitted curve, though single readings scatter. A potency beside an inconclusive call is a rough fit, not a confirmed value.
On the % scale 0 is the no-effect control and ±100 the full control effect; potency means the concentration at half of the fitted maximal effect.

Test: qHTS screen for small molecules that inhibit ELG1-dependent DNA repair in human embryonic kidney (HEK293T) cells expressing luciferase-tagged ELG1; further: nearly all actives have a fitted effect of over 55% in size
Conditions: HEK293T ELG1-luciferase reporter, luminescence, 16 h, DNA damage induced by 5-fluorouridine; activity change, negative = inhibition: at 46.1 µM (top of the series)
Outline: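 5-Fluorouridine DNA damage + compound/DMSO, 2,000 cells/well, 16 h, 37 °C/5% CO2. ONE-Glo, 30 min RT, luminescence. Readout = decrease in reporter signal.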
With Cc1cc(=O)oc2cc(NC(=O)c3cc([N+](=O)[O-])ccc3N3CCOCC3)ccc12 the Potency was “inactive”. With CN(C)S(=O)(=O)c1ccc(C(=O)NC2CCCc3ccccc32)cc1 (stereo unspecified) the Potency was inconclusive: 29.1 µM [inhibitor, single point]. In the case of CC(C(=O)Nc1ccc(C#N)cc1)N(C)CC(=O)Nc1ccccc1Br (stereo unspecified), the Potency is reported as inconclusive: 18.3 µM [inhibitor, single point]. In the case of Cc1noc(C)c1C(=O)N1CCN(C(=O)c2sc3cc(Cl)ccc3c2Cl)CC1, the Potency is reported as inconclusive: 23.1 µM [inhibitor, single point]. For C=CCN(CC=C)S(=O)(=O)c1ccc2nc(NC(=O)C(C)C)sc2c1, the Potency was inconclusive: 8.2 µM [inhibitor, partial curve]. For CC(=O)[C@H]1CC[C@H]2[C@@H]3CCC4=CC(=O)CC[C@]4(C)[C@H]3[C@H](O)C[C@]12C, the Potency was inconclusive: 20.6 µM [inhibitor, single point]. In the case of COC(=O)C1=C(C)NC(C)=C(C(=O)OC)C1C(=O)OCc1nnc(-c2ccccc2Cl)o1, the Potency is reported as inconclusive: 18.3 µM [inhibitor, single point]. With COC(=O)C1=CN(c2ccc(Cl)cc2)C=C(C(=O)OC)C1c1ccc([N+](=O)[O-])cc1 the Potency was inconclusive: 8.2 µM [inhibitor, partial curve]. For O=C(NCCOc1ccccc1F)C1CC(=O)N(Cc2ccccc2)C1 (stereo unspecified), the Potency was “inactive”. With CCN(CC(=O)NC(C)C)C(=O)c1cc(S(=O)(=O)N2CCCCC2)ccc1N1CCCCC1 the Potency was “inactive”. In the case of CCn1c(CNc2ccc(Cl)cc2)nnc1SCc1ccc(C)cc1, the Potency is reported as inconclusive: 16.4 µM [inhibitor, partial curve]. With CCn1c(=O)c2c(nc3n2CCCN3Cc2ccccc2)n(C)c1=O the Potency was inconclusive: 16.4 µM [inhibitor, partial curve]. For NNC(=O)c1cncn1-c1ccc(F)cc1, the Potency was “inactive”. With NS(=O)(=O)c1cccc(NC(=O)CSc2nc3ccccc3n2-c2ccccc2)c1 the Potency was active: 9.2 µM. With CCCNC(=O)NC(=O)CSc1nc2cc(C(=O)OC)ccc2c(=O)n1-c1ccccc1 the Potency was inconclusive: 23.1 µM [inhibitor, single point]. With O=C(c1ccco1)N1CCN(c2c([N+](=O)[O-])nn(-c3cccc(Cl)c3)[n+]2[O-])CC1 the Potency was inconclusive: 32.6 µM [inhibitor, single point]. For CC(C)c1ccccc1NC(=O)COC(=O)c1cc(=O)[nH]c(=O)[nH]1, the activity change, negative = inhibition was inconclusive: 41% [activator]. With O=C(Nc1ccc(F)cc1)N1CCCN(c2nccc(C(F)(F)F)n2)CC1 the Potency was inconclusive: 23.1 µM [inhibitor, single point]. With Nc1cc(Cl)nc(N/N=C/c2ccccc2[N+](=O)[O-])n1 the Potency was inconclusive: 10.3 µM [activator, partial curve]. For O=C(CN1c2ccccc2Sc2ccccc21)NNC(=O)Nc1cccc(Cl)c1, the Potency was inconclusive: 29.1 µM [inhibitor, single point]. With NC(=O)COc1ccccc1/C=C1/SC(=O)N(CC(=O)N2CCc3ccccc3C2)C1=O the Potency was inconclusive: 29.1 µM [inhibitor, single point]. In the case of COc1ccc(OCc2cc(C(=O)N3C[C@@H](C)O[C@@H](C)C3)no2)c(Cl)c1, the Potency is reported as inconclusive: 20.6 µM [activator, partial curve]. In the case of CCOC(=O)[C@H]1[C@H]2COc3ccc(Br)cc3[C@H]2N2C(=O)CNC(=O)[C@@]12C, the Potency is reported as “inactive”. With Cc1cc(C)c(C)c(OC(=O)c2sc(Cl)nc2C)c1 the Potency was inconclusive: 16.4 µM [inhibitor, partial curve]. In the case of Cc1ccc(NC(=O)c2cc([N+](=O)[O-])ccc2NCc2cccnc2)cc1Cl, the Potency is reported as inconclusive: 35.5 µM [inhibitor, single point]. In the case of O=C(c1ccc(Cl)c(S(=O)(=O)N2CCCC2)c1)N1CCN(c2ncccn2)CC1, the Potency is reported as inconclusive: 0.0291 µM [inhibitor, full curve]. In the case of Cc1nnc2n1N=CC=C(c1ccccc1)S2, the Potency is reported as “inactive”. For O=C(Nc1ccc(N2CCN(C(=O)c3cccs3)CC2)cc1)c1ccccc1F, the Potency was inconclusive: 25.9 µM [inhibitor, partial curve, poor fit]. For CS(=O)(=O)N1N=C(c2ccco2)CC1c1ccccc1 (stereo unspecified), the Potency was “inactive”. With Cc1ccccc1OCC(O)CN1CCN(CC(O)COc2ccccc2C)CC1 (stereo unspecified) the Potency was inconclusive: 10.3 µM [inhibitor, partial curve, poor fit]. In the case of CC(C)NS(=O)(=O)c1ccc(NC(=O)C2CC3C=CC2C3)cc1 (stereo unspecified), the Potency is reported as inconclusive: 3.16 µM [activator, single point]. For O=C(NCC1CCN(c2ccc(S(=O)(=O)N3CCOCC3)cc2)CC1)c1cccc(Cl)c1, the Potency was “inactive”. For COc1cc(NC(=O)CCCC(=O)OCC(F)(F)C(F)F)nc(OC)n1, the Potency was inconclusive: 16.4 µM [activator, partial curve, poor fit]. For CC(O)(CS(=O)(=O)Cc1ccccc1Cl)C(=O)Nc1cccc(C(F)(F)F)c1 (stereo unspecified), the Potency was “inactive”. In the case of Cc1ccc(C(=O)NCCc2nnc3ccc(SCC(=O)Nc4c(C)cc(C)cc4C)nn23)cc1, the Potency is reported as inconclusive: 29.1 µM [inhibitor, single point]. In the case of Cc1cc(NC(=O)CS(=O)(=O)c2cn(Cc3ccc(F)cc3)c3ccccc23)no1, the Potency is reported as inconclusive: 29.1 µM [inhibitor, single point]. With CCC(=O)Nc1cc(C(=O)OCC(=O)c2ccc(Cl)cc2Cl)ccc1C the Potency was “inactive”. With COc1cc(/C=N/NC(=O)C(N)=O)ccc1OC(=O)c1cccs1 the Potency was “inactive”. In the case of COc1ccc(/C=C(/NC(=O)c2ccccc2)C(=O)N/N=C/c2cccs2)cc1OC, the Potency is reported as inconclusive: 16.4 µM [inhibitor, partial curve, poor fit]. With O=C1C=C(O)c2cccc(O)c2C1=O the Potency was inconclusive: 7.3 µM [inhibitor, partial curve]. For O=C(COC(=O)CNC(=O)C1CCCCC1)Nc1ccc2c(c1)OCCO2, the Potency was “inactive”. For C=C(c1ccccc1Cl)[n+]1ccccc1, the Potency was “inactive”. For COc1ccc(OCC(O)CN(C)C(=O)/C=C/c2cccc([N+](=O)[O-])c2)cc1 (stereo unspecified), the Potency was inconclusive: 20.6 µM [inhibitor, partial curve]. With CCOc1ccccc1N1CCN(C(=O)c2csc(C)c2CC)CC1 the Potency was inconclusive: 18.3 µM [inhibitor, single point]. In the case of Cc1ccc(CSc2nnc(-c3ccc4c(c3)OCO4)o2)cc1, the Potency is reported as inconclusive: 29.1 µM [activator, partial curve, poor fit]. With O=c1cc(CSc2nc(NCc3ccccc3)c3ccccc3n2)nc2ccc(Cl)cn12 the Potency was inconclusive: 32.6 µM [inhibitor, single point]. In the case of O=[N+]([O-])c1ccccc1NC(=S)N/N=C/c1ccc(O)c(O)c1, the Potency is reported as inconclusive: 3.26 µM [activator, full curve]. With O=C(CN1c2ccccc2Sc2ccccc21)N/N=C/c1ccc(Cl)cc1Cl the Potency was “inactive”. For CCOC(=O)N1CCC(NC(=O)C2CCCN(C(=O)c3cc4sccc4n3C)C2)CC1 (stereo unspecified), the Potency was inconclusive: 29.1 µM [inhibitor, single point]. With C=CCc1cccc2cc(C(=O)Nc3ccc(F)cc3)c(=O)oc12 the Potency was inconclusive: 9.2 µM [activator, partial curve]. In the case of O=C(Nc1nc(-c2ccccc2)cs1)C1CCCCN1S(=O)(=O)c1ccccc1 (stereo unspecified), the Potency is reported as inconclusive: 8.2 µM [inhibitor, single point]. In the case of CC(C)[C@H](N)c1nnc(SCc2ccc(Cl)cc2)o1, the Potency is reported as “inactive”. In the case of O=C(Nc1cc(S(=O)(=O)N2CCCC2)ccc1Cl)c1cc(F)c(F)c(F)c1F, the Potency is reported as inconclusive: 4.11 µM [inhibitor, single point]. In the case of O=C(c1cc2cc(Br)ccc2o1)N1CCCC1, the Potency is reported as inconclusive: 29.1 µM [activator, single point]. For Cn1nc(C(F)(F)F)c(C(=O)Nc2ccc(F)cc2F)c1Oc1cccc(Cl)c1, the Potency was “inactive”. For CCOC(=O)/C(C#N)=C\c1c(OCC)n(CC)c2ccccc12, the Potency was inconclusive: 18.4 µM [inhibitor, single point]. For COc1ccc2[nH]c3c(c2c1)CCN1C(=O)C(CC(=O)NCCCn2ccnc2)C[C@H](C(=O)N2CCOCC2)[C@@]31C (stereo partly specified), the Potency was inconclusive: 25.9 µM [activator, partial curve, poor fit]. With CCn1c(SCC(=O)N2CCCc3ccccc32)nc2c(c1=O)SC(C)C2 (stereo unspecified) the Potency was inconclusive: 29.1 µM [inhibitor, single point]. In the case of O=C(N/N=C/c1c[nH]c2ccccc12)c1ccc2c(c1)OCCO2, the Potency is reported as inconclusive: 2.59 µM [activator, partial curve]. For COc1cc2c(cc1OC)C(c1ccccc1C)CC(=O)N2 (stereo unspecified), the Potency was “inactive”. For Nc1n[nH]c2cc(=O)n(-c3cccc(C(F)(F)F)c3)nc12, the Potency was inconclusive: 32.6 µM [inhibitor, partial curve, poor fit]. With O=C(O)c1ccc(/C=N/N2CCN(Cc3ccccc3)CC2)cc1 the Potency was “inactive”. With CCCCOc1ccc(C(=O)N2CCCC2)cc1 the Potency was inconclusive: 20.6 µM [activator, partial curve]. In the case of CCNc1nc(SCC(=O)Nc2ccc(Cl)c(Cl)c2)nc(N(C)C)n1, the Potency is reported as inconclusive: 23.1 µM [inhibitor, single point]. For O=C(Nc1ccc2c(c1)OCO2)c1cccc2c1C(=O)N(Cc1cccnc1)C2, the Potency was inconclusive: 25.9 µM [inhibitor, single point]. With COCC1CCCCN1C(=O)c1ccc2oc(CCc3ccccc3)nc2c1 (stereo unspecified) the Potency was inconclusive: 13 µM [activator, partial curve].
